# In patent US20150050410A1, “COMPOUNDS, COMPOSITIONS, AND METHODS FOR MODULATING SWEET TASTE” (Chromocell Corporation, priority 2013, published 2015):
# For some of these results: The name of at least one read-out is uncertain. Some of these results come from one statement about several compounds together.
# Columns and labels:
# [1] = system: perception of the sweet taste of an aqueous solution of sweetener in humans; assay: Ranking "sip and spit" assessment of sweetness perception (R index); format: in vivo; conditions: compound 10 ppm, vs negative control, R index >=60 = significantly different
# Description: The effect of the test compounds on the perception of the sweet taste of an aqueous solution of sweetener in humans was evaluated using a ranking “sip and spit” method.
# (§1) The aqueous sweetener solutions were prepared by adding, fructose, sucrose or glucose (by weight), to water to achieve the desired concentration.
# Compounds were first prepared as a 500-fold concentrated stock solution in 100% ethanol. These concentrated stocks were then added to the aqueous sweetener solutions to result in a final ethanol concentration of 0.2%. The control (positive and negative) samples were also normalized to 0.2% ethanol.
# In the ranking test used for compound evaluation, taste panelists (n=15), rank samples in increasing order of sweetness. One set, comprising of 6 samples, was presented to each panelists at a given time and are asked to rank them in order of increasing sweetness.
# Panelists were instructed not to eat or drink (except water) for at least 1 h before the test. During the test, panelists were instructed to sip each sample, swirl it around their mouth and then expectorate. After tasting each set, panelists were instructed to rank the 6 samples within the set from least sweet to most sweet. Where rank 1—is lowest in sweetness and rank 6—is highest in sweetness. Panelists cleansed their palates by rinsing with water, eating a cracker and waiting for an interval of 10 minutes. All samples were tasted at ambient temperatures. Each sample was tasted twice.
# R index analysis was utilized to determine the degree of difference between a test and control sample. It indicates the level of discrimination between two samples. […] A positive control sample was used to assess the ability of the panelists to accurately discriminate sweetness perception differences from the negative control.
# [2] = system: perception of the sweet taste of an aqueous solution of sweetener in humans; assay: Two-alternative forced choice "sip and spit" method (2AFC); format: in vivo; conditions: test sample 5% sucrose; compound 15, 25 ppm; positive control conc. / test sample conc.
# Description: The taste test panelists used in the Examples 1-3 were selected using a sensory acuity screening program. Candidate taste panelists were recruited, with prescreening and personal interviews, and were assessed and for their ability to detect, recognize and differentiate basic taste attributes or mixtures thereof as part of a standardized acuity test. This included basic tastes of sweet, sour, salty, bitter and umami, as well as having the capacity to focus on specific aspects of sensory character such as ranking the various tastes perceived and identifying the basic tastes presented at threshold levels.
# The effect of the test compounds on the perception of the sweet taste of an aqueous solution of sweetener in humans was evaluated using a two-alternative forced choice “sip and spit” method (2AFC).
# as §1
# Compounds were first prepared as a 500-fold concentrated stock solution in 100% ethanol. […]
# Panelists were instructed not to eat or drink (except water) for at least 1 h before the test. […] Data were analyzed using binomial probabilities.
# Approximate levels of sweetness enhancement in column 5 of Table 2 were calculated as follows: […]
smiles,measurement,setting,value
"COc1ccc(C2CC(=O)c3c(O)cccc3O2)cc1O (racemic) [Compound 1, 5-hydroxy-2-(3-hydroxy-4-methoxyphenyl)chroman-4-one]",R Index Score,[1]; test sample 4% fructose,90
same,R Index Score,[1]; test sample 5% sucrose,93
"COc1ccc([C@@H]2CC(=O)c3c(O)cccc3O2)cc1O (single isomer, unassigned) [Compound 2]",Fold increase in perceived sweetness,[2],> 1.2 X
same,R Index Score,[1]; test sample 5% sucrose,90
